This sample is rich in variants without activity.

Consider 23 sequences from the supplement of paper PMC9233669.

For series [1], the system named is biotinyl-Trp-oxazolone. The series is described as follows: self-aminoacylation, catalytic enhancement (BWO) (fold over background); higher = more active; k-Seq, kA / k0A0; sequences stand for … in GGGAAUGGAUCCACAUCUACGAAUUC…UUCACUGCAGACUUGACGAAGCUG
The essentials: (§1)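 Catalytic enhancement equals the median kA over the uncatalyzed rate, the latter read from the low-activity peak of a bimodal Gaussian fit. Values of kA came from fitting each sequence's fraction reacted to a pseudo-first-order model, with 1000 bootstraps. Reacted RNA was captured with streptavidin and quantified by triplicate qPCR and Illumina sequencing after 90 minutes at room temperature with 2–1250 μM biotinyl-aminoacyl-oxazolone and 0.43 μM mutagenized RNA pools bearing a 21-nt variable region.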

Series [2] relates to biotinyl-Val-oxazolone. The series is described as follows: self-aminoacylation, catalytic enhancement (BVO) (fold over background); higher = more active; k-Seq, kA / k0A0; sequences stand for … in GGGAAUGGAUCCACAUCUACGAAUUC…UUCACUGCAGACUUGACGAAGCUG
The essentials:
as §1

The test system of series [3] is biotinyl-Phe-oxazolone. The series is described as follows: self-aminoacylation, catalytic enhancement (BFO) (fold over background); higher = more active; k-Seq, kA / k0A0; sequences stand for … in GGGAAUGGAUCCACAUCUACGAAUUC…UUCACUGCAGACUUGACGAAGCUG
The essentials: as §1

In series [4] the test system is biotinyl-Ile-oxazolone. The experiment in a line: self-aminoacylation, catalytic enhancement (BIO) (fold over background); higher = more active; k-Seq, kA / k0A0; sequences stand for … in GGGAAUGGAUCCACAUCUACGAAUUC…UUCACUGCAGACUUGACGAAGCUG
The essentials:
as §1

Series [5] deals with biotinyl-Met-oxazolone. The experiment in a line: self-aminoacylation, catalytic enhancement (BMO) (fold over background); higher = more active; k-Seq, kA / k0A0; sequences stand for … in GGGAAUGGAUCCACAUCUACGAAUUC…UUCACUGCAGACUUGACGAAGCUG
The essentials: as §1

For series [6], the system named is biotinyl-Leu-oxazolone. The series is described as follows: self-aminoacylation, catalytic enhancement (BLO) (fold over background); higher = more active; k-Seq, kA / k0A0; sequences stand for … in GGGAAUGGAUCCACAUCUACGAAUUC…UUCACUGCAGACUUGACGAAGCUG
The essentials: as §1

For “CUACUUCAAACAAUCCGUCUU [Fam1A.1 aminoacylation ribozyme variant]”, the self-aminoacylation turned out to be 0.691 in series [1]; 0.862 in series [2]; 0.785 in series [3]; 0.814 in series [4]; 0.764 in series [5]; 0.802 in series [6].

Regarding “GCACACUUCAAGCAAUGGGUC [Fam1B.1 aminoacylation ribozyme variant]”, the self-aminoacylation amounted to 0.846 in series [1]; 1.03 in series [2]; 1.11 in series [3]; 0.966 in series [4]; 0.948 in series [5]; 1.02 in series [6].

For “CUACUUCAAACAAACGGUGUG [Fam1A.1 aminoacylation ribozyme variant]”, the self-aminoacylation in series [1] came to 1.01; in series [2] it was 1.08; in series [3] it was 0.82; in series [4], 1.01; in series [5] it was 1.14; in series [6], 1.16.

For the sequence “CCACACUUCUAGCAAUCGGUA [Fam1B.1 aminoacylation ribozyme variant]”, the self-aminoacylation in series [1] is 0.539; in series [2], 0.744; in series [3], 0.623; in series [4], 0.879; in series [5], 0.706; in series [6], 0.845.

In the case of “CCAUAGUUCAAGCAAUCGGUC [Fam1B.1 aminoacylation ribozyme variant]”, the self-aminoacylation in series [1] stood at 1.11; in series [2], 1.02; in series [3], 1.4; in series [4], 1.06; in series [5], 0.883; in series [6], 0.903.

In the case of “AAGUUUUCUAAUAAUCGCAAG [Fam3.1 aminoacylation ribozyme variant]”, the self-aminoacylation is 1.35 in series [1]; 1.27 in series [2]; 1.9 in series [3]; 1.55 in series [4]; 1.08 in series [5]; 1.08 in series [6].

As for “CCACAGUUCAAGCAAUCGAUC [Fam1B.1 aminoacylation ribozyme variant]”, the self-aminoacylation in series [1] stood at 0.461; in series [2], 0.755; in series [3] it was 0.55; in series [4] it was 0.675; in series [5] it was 0.718; in series [6], 0.479.

For “CCACACUACAAGCCAUCGGUC [Fam1B.1 aminoacylation ribozyme variant]”, the self-aminoacylation worked out at 0.935 in series [1]; 1.19 in series [2]; 1 in series [3]; 1.15 in series [4]; 0.919 in series [5]; 1.07 in series [6].

Regarding “AAGUUUUCUAAUAGUCGCAAA [Fam3.1 aminoacylation ribozyme variant]”, the self-aminoacylation was 2.46 in series [1]; 1.54 in series [2]; 3.41 in series [3]; 1.93 in series [4]; 1.54 in series [5]; 1.41 in series [6].

For “AUUACCUUCGUCAUCGAGUGA [Fam2.1 aminoacylation ribozyme variant]”, the self-aminoacylation in series [1] worked out at 2.15; in series [2] it was 1.67; in series [3], 2.48; in series [4] it was 1.76; in series [5], 2.22; in series [6], 2.18.

As for “CCAGACUUCAAGCAAUUGGUC [Fam1B.1 aminoacylation ribozyme variant]”, the self-aminoacylation is 0.695 in series [1]; 0.794 in series [2]; 1.07 in series [3]; 0.759 in series [4]; 0.805 in series [5]; 0.66 in series [6].

For “AAGUUUGCCAAUACUCGCAAG [Fam3.1 aminoacylation ribozyme variant]”, the self-aminoacylation in series [1] was 0.921; in series [2], 0.981; in series [3], 0.833; in series [4], 0.777; in series [5] it was 0.897; in series [6] it was 0.885.

With “CCGCACUUCAUGCAAUCGGUC [Fam1B.1 aminoacylation ribozyme variant]”, the self-aminoacylation in series [1] worked out at 1.07; in series [2], 1.26; in series [3], 1.01; in series [4], 1.18; in series [5], 1.12; in series [6], 1.11.

On to “CAACACUUCAAGCAAUAGGUC [Fam1B.1 aminoacylation ribozyme variant]”, for which the self-aminoacylation in series [1] worked out at 0.591; in series [2] it was 0.72; in series [3], 1.06; in series [4] it was 0.707; in series [5] it was 0.616; in series [6], 0.512.

Consider “CCCCACUGCAAGCAAUCGGUC [Fam1B.1 aminoacylation ribozyme variant]”, for which the self-aminoacylation is 3.43 in series [1]; 2.35 in series [2]; 4.31 in series [3]; 1.77 in series [4]; 1.73 in series [5]; 1.57 in series [6].

For the sequence “CUACUUCUAACAAUCUGUCUG [Fam1A.1 aminoacylation ribozyme variant]”, the self-aminoacylation was found to be 0.482 in series [1]; 0.634 in series [2]; 0.716 in series [3]; 0.693 in series [4]; 0.58 in series [5]; 0.615 in series [6].

Regarding “CUACUGCAAACAAACGGUCUG [Fam1A.1 aminoacylation ribozyme variant]”, the self-aminoacylation in series [1] was 1.29; in series [2], 1.01; in series [3] it was 0.874; in series [4] it was 0.965; in series [5] it was 0.932; in series [6], 0.773.

As for “AAGUUUGCUAAUACUCGGAAG [Fam3.1 aminoacylation ribozyme variant]”, the self-aminoacylation in series [1] was 0.636; in series [2], 0.608; in series [3], 1.03; in series [4], 0.616; in series [5], 0.743; in series [6] it was 0.484.

For “AAGUUUGAUAAUAGUUGCAAG [Fam3.1 aminoacylation ribozyme variant]”, the self-aminoacylation in series [1] is 0.733; in series [2] it was 0.685; in series [3] it was 0.854; in series [4] it was 0.785; in series [5] it was 0.588; in series [6] it was 0.845.

“AAGUGUGCUAAUAGGCGCAAG [Fam3.1 aminoacylation ribozyme variant]”: the self-aminoacylation is 1.08 in series [1]; 1.1 in series [2]; 0.73 in series [3]; 1.07 in series [4]; 1.07 in series [5]; 1.1 in series [6].

Regarding “CUACUACACACAAUCGGUCUG [Fam1A.1 aminoacylation ribozyme variant]”, the self-aminoacylation in series [1] stood at 0.718; in series [2], 0.681; in series [3] it was 0.948; in series [4], 0.846; in series [5], 0.641; in series [6], 0.768.

“CUACCUCAAACAAUGGGUCUG [Fam1A.1 aminoacylation ribozyme variant]”: the self-aminoacylation in series [1] was 1.38; in series [2], 0.988; in series [3], 1.27; in series [4], 1.38; in series [5] it was 1.07; in series [6], 1.06.

Take “AUUACCCAGGUCAUCGAGAGA [Fam2.1 aminoacylation ribozyme variant]”: the self-aminoacylation is 0.784 in series [1]; 1.07 in series [2]; 0.893 in series [3]; 0.939 in series [4]; 0.852 in series [5]; 0.841 in series [6].
